Literature values as cited in patent publication US9302991B2, “Arylamide derivatives as TTX-S blockers” (RaQualia Pharma Inc., priority 2010, dated 2016).
Some results were stated once for a whole list of compounds, not compound by compound.

System: TTX-R and TTX-S sodium channels
Conditions: known values; range printed with mixed units (microM to mM); cited from earlier work

Structure (SMILES) | IC50 [mM]
FC(F)(F)C(Cl)Br (centres unmarked) [halothane] | 0.05 to 10
CCN(CC)CC(=O)Nc1c(C)cccc1C [lidocaine] | 0.05 to 10
